Drawing on PMC4063703, this text covers binding for 1 molecule.

These are yes or no findings as the source states them, for the method shown. Binding seen in cells or lysates may run through a third protein. Some entries that bind do so weakly or less than the wild type. Tags and fused reporters may be left off the sequences shown.

This test has as its target T1, Yth1-3flag (fission yeast) (UniProt Q9UTD1).
T1 sequence: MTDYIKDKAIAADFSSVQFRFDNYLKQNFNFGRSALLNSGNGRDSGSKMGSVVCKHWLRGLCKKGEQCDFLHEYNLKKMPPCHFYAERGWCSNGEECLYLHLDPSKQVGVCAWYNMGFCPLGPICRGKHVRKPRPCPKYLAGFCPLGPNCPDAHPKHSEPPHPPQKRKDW
Kind of test: co-IP; clarified fission yeast extracts (50 mM HEPES pH 7.6, 75 mM KCl, 1 mM MgCl2, 1 mM EGTA, 0.1% Triton) incubated 60 min at 4°C with Protein A Dynabeads carrying the antibody; western blot; cycling cells or cells in early mitosis (nda3KM311); with or without Swd2.2, with or without Ppn1, extracts treated or not with RNase A.

B1: Pfs2-GFP (protein, UniProt Q9UTN4 1-509)
chain: MERAENARIIQKPMTRRTVDYGSGLSKYIVNRHLRSNRYHIHVPRPNPNQIINLYPPYEYKYNNTSSLCTKYIHTSANKARHVINVVRWTPDGRRLLTGSSTGEFTLWNGLTFNFELINQSHDYAVRCAEWSTDGRWLISGDGGGMVKYFEPNLNNVKIVQAHEMEVRDVAFSPNDSKFVTASDDGSLKVWNFHMSTEELKLTGHGWDVKTVDWHPSKGLLASGSKDNLVKFWDPRTGTCIATLHGHKNTIMQASFQKNFGSNYLATVSRDSTCRVFDLRAMKDVRVLRGHEKDVNCVTWHPLYPNLLTTGGSDGSVNHYSLDEPPLLSQQKYHEKHPNVTLSASSYLLYPTAEIPFAHDLGIWSMQYHPLGHLLCTGSNDKTTRFWSRSRPDDKESTMDRHHLGEEQSEAMLSQRKAAIEEDDNYEPDENPLTETLANAHNPQFSGVLNLPGLGTMPSFPSPYQHGQPQIPGMLHASLSNSYAEPSTQNSFIPGLTSKSQDGYPQNYR
As to B1, the binding result is recorded as “binds”.
